# Laboratory results from US9724341B2 (priority 2013, dated 2017).
structure (smiles),measurement,setting,value
"CN1CCCC1c1cccnc1.O=C(O)c1cccc(O)c1 (centres unmarked) [Nicotine m-salicylate, nicotine meta-salicylate]",mass balance of nicotine and m-salicylic acid (coated vs. emitted+residual),both entities,about 100%
same,average nicotine emitted dose,"foils coated with 200 μg nicotine, 28.3 LPM",99.5 % of coated dose
